Measured values reported in PubChem BioAssay AID1259415 (National Center for Advancing Translational Sciences (NCATS), 2018).
Where “and” joins values, the source holds several entries; their conditions need not be identical. Equal values may be shown once. Out of some 410,000 compounds screened, about 18,000 (4.4%) were called active. Inconclusive means that the source gave no clear call. Such entries were picked first, then a sample of the others. No stated cut-off is given here; in the data, active means activity change below about -60%; inconclusive means no clear call, values can overlap the other calls; inactive means above about -39%.

assay: qHTS Assay for inhibitors of the human cytomegalovirus (HCMV); settings: HFF cells, HCMV-luciferase reporter, 72 h; at 57.5 µM; hits give low values
Procedure, shortened: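 HFF cells seeded 16 h at 37C, treated with compounds, infected with luciferase-reporter HCMV at MOI 1 PFU/cell; luciferase read at 72 h post infection, normalized to buffer-only and Salinomycin controls.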
On the % scale 0 is the no-effect control and ±100 the full control effect.

SMILES	activity change, negative = inhibition
O=C(Nc1nc(-c2cccs2)c(-c2cccs2)s1)C1(c2ccccc2)CC1	inconclusive: -57.6%
Cc1n[nH]c(=O)c2c(NC(=O)CSc3nc4ccccc4c(=O)n3CCCOC(C)C)oc(C)c12	active: -97.9%
CCOC(=O)C1CCCN(S(=O)(=O)c2ccc(-c3cc(C)no3)s2)C1 (stereo not given)	inconclusive: -41.5%
N/C(=N\OC(=O)c1ccc(Cl)cc1Cl)c1ccc(Cl)cc1	inconclusive: -45.7%
CCc1ccccc1NC(=S)N(CCN1CCCCCC1)Cc1ccco1	inactive: 29.5%
CC(=O)Nc1ccc(S(=O)(=O)NNC(=O)c2sc(=S)n(C)c2C)cc1	inconclusive: -46.2%
Cc1ccc(CNC(=O)c2cc3sc(Cl)cc3n2C)cc1	inconclusive: -43.4%
O=C(Nc1nncs1)C1CC(=O)N(C2CCCC2)C1 (stereo not given)	inconclusive: -49.9%
COc1cccc(-c2c(-c3cc(OC)cc(OC)c3)n(C)c3ccc(-c4cnc(OC)nc4)cc23)c1	inconclusive: -55.1%
O=C(CSC1=Nc2ccccc2C2=NC(Cc3ccccc3)C(=O)N12)Nc1cccc(Cl)c1 (stereo not given)	active: -71.6%
COc1ccc(CN2CCNC(=O)C2CC(=O)NC2CCCCCCC2)cc1OC (stereo not given)	inconclusive: -49.1%
CSc1c2c(nc3ncnn13)CCC2	inactive: -38.2%
COc1ccc(OC)c(C2CC(=O)Nc3c2c(=O)n(C)c2ncnn32)c1 (stereo not given)	inactive: 8.41%
CCN(CC)S(=O)(=O)c1ccc(N2CCCC2)c(NC(=O)C2CCCCC2)c1	inactive: 0%
COC(=O)c1ccc(NC(=O)CSc2nccn2CCc2ccccc2)cc1	inconclusive: -46.4%
O=C1Nc2ccccc2C(=O)C1(Cl)Cc1ccccc1 (stereo not given)	inactive: 86.4%
COc1ccc(S(=O)(=O)N2CCN(C(=O)c3ccco3)CC2)cc1C(C)(C)C	inactive: -25.6%
NS(=O)(=O)c1ccc(CCNC(=O)CN2CCN(Cc3cccc(C(F)(F)F)c3)CC2)cc1	inconclusive: -56.5%
O=C(O)c1ccc(NC(=O)C2(c3ccccc3)CCCC2)cc1	inconclusive: 0%
CN(C)C(CNC(=O)c1cccc(S(=O)(=O)N2CCc3ccccc3C2)c1)c1ccccc1 (stereo not given)	inactive: 6.73%
O=C1CCC(C(=O)Nc2cccc(Oc3ccccc3)c2)=NN1	inconclusive: -56.7%
FC(F)(F)c1cccc(CN2CCC(c3cc(-c4cccs4)n[nH]3)CC2)c1	active: -78.7%
Cc1ccc(NC(=O)CSc2nncn2C)c(C)c1	active: -105%
CCOc1ccccc1CNS(=O)(=O)c1ccc(-c2cnc(C3CC3)o2)cc1	active: -87.9% and active: -69%
COc1ccc(-n2c(C)nc3c(cnn3-c3ccc(C)cc3)c2=O)cc1	inconclusive: -45.9%
COc1cccc(CNC(=O)c2nn(C)c3c2CSc2ccccc2-3)c1	inconclusive: -43.7%
COc1ccc(S(=O)(=O)N2CCC(C(=O)NCC3CCCO3)CC2)cc1OC (stereo not given)	inconclusive: -46%
Cc1ccc(S(=O)(=O)N2C(=O)CCC2C(=O)O/N=C(\N)c2ccccc2)cc1 (stereo not given)	inconclusive: -51.6%

SMILES	activity change, negative = inhibition
Cc1ccc(CC(=O)NC2CCN(Cc3ccccc3)CC2)cc1	inactive: -4.39%
Cc1ccc(NC(=O)c2c([N+](=O)[O-])cnn2C)cc1C	inactive: 6.76%
Cn1c(O)c(N=Nc2ccc(S(=O)(=O)N3CCOCC3)cc2)c(=O)n(C)c1=O	inconclusive: -53.3%
COc1ccccc1NC(=O)CSc1nnc2c(n1)[nH]c1ccccc12	inactive: 11.2%
Cc1ccc(C)c(CN2CCCN(Cc3ccccc3C)S2(=O)=O)c1	inconclusive: 0%
COc1cc(OC)c(OC)cc1CNC(=O)c1cccc(S(=O)(=O)N2CCc3ccccc3C2)c1	inconclusive: -55%
O=C1CCCN1CC1CCN(Cc2nc(CC3CC3)no2)CC1	inactive: -16%
S=C1NC2(CCCCCC2)N=C1c1ccccc1	inactive: 5.41%
Cc1cc([N+](=O)[O-])ccc1N=Nc1c(N)[nH]n(-c2ccccc2)c1=O	inconclusive: -49%
Cc1[nH]cnc1CSCc1ccc(Cl)cc1	inactive: 20.3%
O=C(NN=Cc1cccc2ccccc12)C(=O)NN=Cc1cccc2ccccc12	inactive: -16.3%
CC1(C)CC(NC(=O)c2cc(S(=O)(=O)N3CCOCC3)ccc2Cl)CC(C)(C)N1	inactive: 25.4%
COC(=O)c1ccccc1NC(=O)c1cc(OC)cc(OC)c1	inconclusive: -42.6%
COc1ccccc1N1CCN(S(=O)(=O)c2cc(C(=O)Nc3ccc(Oc4ccccc4)cc3)ccc2F)CC1	active: -67.1%
Cc1ccccc1N(C(=O)CCCC(=O)Nc1ccccn1)C(C(=O)NC1CCCC1)c1ccc(O)cc1 (stereo not given)	inactive: 32.5%
CC(C)SCC(=O)Nc1ncc2c(n1)-c1ccccc1CC2	active: -63.8%
O=C(NCC(=O)N(c1ccccc1F)C(C(=O)NCC1CCCO1)c1ccccc1)c1ccco1 (stereo not given)	inactive: 1.13%
CC(C)(C)c1cc(NC(=O)c2cccc(S(=O)(=O)N3CCOCC3)c2)no1	inconclusive: -43.6%
O=C(CSc1nc2ccccc2nc1Cc1ccc(Cl)cc1)N1CCCCC1	inconclusive: 0%
Cc1ccc(N2C(=O)C(Cl)=C(N3CCCCCC3)C2=O)c(C)c1	inconclusive: -51.2%
CCc1cccc(C)c1NC(=O)CSc1nnc(-c2cc3cc(Br)ccc3o2)n1CC	inconclusive: -56.7%
Cc1cc(C)c(S(=O)(=O)N2CCN(C(=O)CC(C)n3nc(C)nc3C)CC2)c(C)c1 (stereo not given)	active: -73.7%
Cc1ccc(NC(=O)C2CCN(S(=O)(=O)c3ccc4c(c3)CCCC(=O)N4)CC2)c(Br)c1	inconclusive: -51%
Cc1onc(-c2ccccc2Cl)c1C(N)=O	inactive: 13.1%
OCCN1CCN(c2nc(N3CCCCC3)nc(N3CCCCC3)n2)CC1	inconclusive: -42.9%
Cn1c(SCc2cccc(Br)c2)nnc1-c1ccncc1	inconclusive: -43.7%
COc1ccc(/C=N/NC(=O)c2nnn(-c3nonc3N)c2CN(C)c2ccccc2)cc1	inconclusive: -47.5%

Entries listed so far containing bromine:
SMILES	activity change, negative = inhibition
CCc1cccc(C)c1NC(=O)CSc1nnc(-c2cc3cc(Br)ccc3o2)n1CC	inconclusive: -56.7%
Cc1ccc(NC(=O)C2CCN(S(=O)(=O)c3ccc4c(c3)CCCC(=O)N4)CC2)c(Br)c1	inconclusive: -51%
Cn1c(SCc2cccc(Br)c2)nnc1-c1ccncc1	inconclusive: -43.7%
